Results on 40 substances are retold here after patent publication US11872270B2, “A*03 restricted peptides for use in immunotherapy against cancers and related methods” (Immatics Biotechnologies GmbH, priority 2018, dated 2024).

For part of these data: For expression read-outs the peptide stands for its source gene, whose mRNA was measured; the gene is not named for every peptide.

Series [1] has as its system source genes (mRNA) in tumor and normal tissue. The experiment in a line: Expression profiling of genes encoding the peptides (RNAseq). More on the design: species or system human. The note with it: for Gene Expression in tumor samples: over-expressed (+): tumor entities in which the source gene is over-expressed vs panel of normal tissues (Table 9a); for Gene Expression in tumor samples: very highly over-expressed (+++): tumor entities in which the source gene is very highly over-expressed vs panel of normal tissues (Table 9a); for Gene Expression in tumor samples: highly over-expressed (++): tumor entities in which the source gene is highly over-expressed vs panel of normal tissues (Table 9a).

Series [2] has as its system HLA molecules from shock-frozen tissue samples. The experiment in a line: Identification and quantitation of tumor associated peptides presented on the cell surface (HLA immunoprecipitation, LC-MS). Also on record: species or system human.
[3] abbreviates: cancer entities on which the peptide was detected by LC-MS of HLA ligands.
Where [4] appears, read: cancer entities on which the peptide was found presented (Table 8b).

As to “5: peptide found in SLC6A3 (gene looked up) (AMVPIYAAY; listed as Homo sapiens) [compound 5]”, in series [1], the “Gene Expression in tumor samples: over-expressed (+)” value (“Gene Expression … over-expressed (+)” for short) is reported as “NSCLCadeno, NSCLCsquam, SCLC” and the “Gene Expression in tumor samples: very highly over-expressed (+++)” value is “RCC”. For the same substance, the “Peptide Presentation on cancer entities” value in series [2] (setting [3]) is “RCC”. As for “12: peptide found in CHRNA9 (gene looked up) (KVLTRNIEY; listed as Homo sapiens) [compound 12]”, in series [1], the “Gene Expression in tumor samples: highly over-expressed (++)” value is listed as “GBM, HNSCC, SCLC”; the “Gene Expression … over-expressed (+)” value is given as “MEL, NSCLCadeno, NSCLCsquam, OC, OSCAR, UBC, UEC”; the “Gene Expression in tumor samples: very highly over-expressed (+++)” value is reported as “NSCL; Cother”. Moreover, the “Peptide Presentation on cancer entities” value in series [2] (setting [3]) is on record as “GBC”. In the case of “15: peptide found in CYP4Z1 (gene looked up) (RLYAPVVNISRL; listed as Homo sapiens) [compound 15]”, the “Gene Expression in tumor samples: very highly over-expressed (+++)” value in series [1] is reported as “BRCA”. Besides, the “Peptide Presentation on cancer entities” value in series [2] (setting [3]) is recorded as “BRCA”.

In the case of “16: peptide found in IGF2BP1 (gene looked up) (KVFAEHKISY; listed as Homo sapiens) [compound 16]”, in series [1], the “Gene Expression in tumor samples: highly over-expressed (++)” value is on record as “CRC, GC, HCC, HNSCC, MEL, NHL, NSCLCadeno, NSCLCsquam, OC, OSCAR, SCLC”; the “Gene Expression … over-expressed (+)” value was “CCC, NSCLCother, PACA, RCC, UBC”; the “Gene Expression in tumor samples: very highly over-expressed (+++)” value is reported as “GBC”. For the same substance, the “Peptide Presentation on cancer entities” value in series [2] (setting [3]) is “HNSCC”.

Turning to “23: peptide found in KISS1R (gene looked up) (RLSPGPRAY; listed as Homo sapiens) [compound 23]”, in series [1], the “Gene Expression in tumor samples: highly over-expressed (++)” value is “RCC” and the “Gene Expression … over-expressed (+)” value is “BRCA, NSCLCadeno, UEC”. In series [2] (setting [3]), the “Peptide Presentation on cancer entities” value is “RCC”. Take “25: peptide found in KISS1R (gene looked up) (KTWAHCMSY; listed as Homo sapiens) [compound 25]”: in series [1], the “Gene Expression in tumor samples: highly over-expressed (++)” value was “RCC” and the “Gene Expression … over-expressed (+)” value is “BRCA, NSCLCadeno, UEC”. Besides, in series [2] (setting [3]), the “Peptide Presentation on cancer entities” value is recorded as “BRCA, NSCLCadeno, RCC”. The like results for “26: peptide found in PGR (gene looked up) (QLGYQAAVLK; listed as Homo sapiens) [compound 26]” were, in that order, “UEC”, “BRCA” and “GBM”. For “27: peptide found in PGR (gene looked up) (SGSTLECILYK; listed as Homo sapiens) [compound 27]” the same measures were “UEC”, “BRCA” and “UEC”. The like results for “28: peptide found in PGR (gene looked up) (STLECILYK; listed as Homo sapiens) [compound 28]” were, in that order, “UEC”, “BRCA” and “UEC”. For “34: peptide found in HTR3A (gene looked up) (AIGTPLIGK; listed as Homo sapiens) [compound 34]”, in series [1], the “Gene Expression in tumor samples: highly over-expressed (++)” value is on record as “NHL, OC” and the “Gene Expression … over-expressed (+)” value is given as “NSCLCadeno”. In addition, the “Peptide Presentation on cancer entities” value in series [2] (setting [3]) is “CRC, NSCLCadeno, UEC”. As to “35: peptide found in NOTUM (gene looked up) (VLLLLSLLH; listed as Homo sapiens) [compound 35]”, in series [1], the “Gene Expression in tumor samples: highly over-expressed (++)” value is “HCC” and the “Gene Expression … over-expressed (+)” value is “GBC, SCLC, UEC”. The “Peptide Presentation on cancer entities” value in series [2] (setting [3]) is on record as “NSCLCadeno”. For “44: peptide found in MMP13 (gene looked up) (HAFPPGPNY; listed as Homo sapiens) [compound 44]”, in series [1], the “Gene Expression in tumor samples: highly over-expressed (++)” value is reported as “HNSCC, NSCLCsquam, OSCAR” and the “Gene Expression … over-expressed (+)” value is given as “NSCLCadeno, UBC”. Also, in series [2] (setting [3]), the “Peptide Presentation on cancer entities” value is on record as “HNSCC”.

With “47: peptide found in QRFPR (gene looked up) (ALFGNALVFY; listed as Homo sapiens) [compound 47]”, in series [1], the “Gene Expression in tumor samples: highly over-expressed (++)” value is on record as “RCC” and the “Gene Expression … over-expressed (+)” value is listed as “NSCLCsquam, OSCAR”. The “Peptide Presentation on cancer entities” value in series [2] (setting [3]) is recorded as “RCC”.

Turning to “69: peptide found in GPR143 (gene looked up) (GLSTILLYH; listed as Homo sapiens) [compound 69]”, in series [1], the “Gene Expression in tumor samples: highly over-expressed (++)” value is reported as “MEL”. In series [2] (setting [3]), the “Peptide Presentation on cancer entities” value was “CCC, CRC, GBC, GBM, MEL, NSCLCadeno, NSCLCsquam, OSCAR, PACA, RCC, UEC”. The like results for “70: peptide found in GPR143 (gene looked up) (VTAVASLLK; listed as Homo sapiens) [compound 70]” were, in that order, “MEL” and “MEL”. Take “74: peptide found in NCAPD3 (gene looked up) (HSTLVALFY; listed as Homo sapiens) [compound 74]”: the “Gene Expression in tumor samples: highly over-expressed (++)” value in series [1] is given as “PRCA”. For the same substance, the “Peptide Presentation on cancer entities” value in series [2] (setting [3]) is “NHL”.

Consider “76: peptide found in GPR143 (gene looked up) (IINESLLFY; listed as Homo sapiens) [compound 76]”, for which the “Gene Expression in tumor samples: highly over-expressed (++)” value in series [1] was “MEL”. Moreover, the “Peptide Presentation on cancer entities” value in series [2] (setting [3]) is reported as “BRCA, CRC, GBC, MEL, NSCLCadeno, RCC, UEC”. With “79: peptide found in CXCR3 (gene looked up) (AVAAVLLSR; listed as Homo sapiens) [compound 79]”, the “Gene Expression in tumor samples: highly over-expressed (++)” value in series [1] is given as “CLL”. Further, the “Peptide Presentation on cancer entities” value in series [2] (setting [3]) is “CCC, CLL, CRC, HNSCC, MEL, NHL, NSCLCadeno, NSCLCsquam, OSCAR, RCC, UEC”. As for “81: peptide found in APOB (gene looked up) (HLFLPFSYK; listed as Homo sapiens) [compound 81]”, in series [1], the “Gene Expression in tumor samples: highly over-expressed (++)” value was “HCC”. Besides, in series [2] (setting [3]), the “Peptide Presentation on cancer entities” value is “CCC, HCC”. For “84: peptide found in ROS1 (gene looked up) (QLYSPPSPSYR; listed as Homo sapiens) [compound 84]”, the “Gene Expression … over-expressed (+)” value in series [1] is recorded as “NSCLCadeno, NSCLCother, NSCLCsquam”. In addition, in series [2] (setting [3]), the “Peptide Presentation on cancer entities” value is on record as “HNSCC, NSCLCadeno”. In the case of “89: peptide found in KISS1R (gene looked up) (VIYVICRHK; listed as Homo sapiens) [compound 89]”, in series [1], the “Gene Expression in tumor samples: highly over-expressed (++)” value was “RCC” and the “Gene Expression … over-expressed (+)” value was “NSCLCadeno, UEC”. In the case of “136: peptide found in CYP1A1 (gene looked up) (ALSRMSQQY; listed as Homo sapiens) [compound 136]”, the “Gene Expression in tumor samples: highly over-expressed (++)” value in series [1] is reported as “NSCLCother”.

For “203: peptide found in RXFP1 (gene looked up) (IVAFIPLSNK; listed as Homo sapiens) [compound 203]”, the “Gene Expression … over-expressed (+)” value in series [1] is “UEC”.

“204: peptide found in RXFP1 (gene looked up) (VAFIPLSNK; listed as Homo sapiens) [compound 204]”: in series [1], the “Gene Expression … over-expressed (+)” value is listed as “UEC”. For the substance “252 (AVYNYPEGAAY; listed as Homo sapiens) [compound 252]”, the “Peptide Presentation on cancer entities” value in series [2] (setting [4]) is given as “UEC”. The same measure, in the same setting: the same measure for “253 (KLSLSHKK; listed as Homo sapiens) [compound 253]”: “CRC, MEL, NSCLCadeno”.

With “254 (SVLDKLLFH; listed as Homo sapiens) [compound 254]”, the “Peptide Presentation on cancer entities” value in series [2] (setting [4]) is listed as “NHL, RCC”.

Consider “255 (VRTLPFLIK; listed as Homo sapiens) [compound 255]”, for which the “Peptide Presentation on cancer entities” value in series [2] (setting [4]) was “GBC, HCC”. The same measure, in the same setting: then “256 (AVIGALLAVGATK; listed as Homo sapiens) [compound 256]”, with “MEL”. The same measure, in the same setting: then “257 (LAELEGALQK; listed as Homo sapiens) [compound 257]”, with “BRCA, CCC”; and “259 (RSYVPLAH; listed as Homo sapiens) [compound 259]”, with “MEL”.

With “261 (AVAQKLLSH; listed as Homo sapiens) [compound 261]”, the “Peptide Presentation on cancer entities” value in series [2] (setting [4]) is “HCC, NHL, OC, UEC”. Still for that read-out and setting: then “263 (RTYQLYSR; listed as Homo sapiens) [compound 263]”, with “CCC, MEL, OC, PRCA, UEC”; and “264 (VIFDAVTEQ; listed as Homo sapiens) [compound 264]”, with “GBM, HCC, MEL, NHL, NSCLCother, OSCAR, RCC, UBC”. Still for that read-out and setting: then “265 (KIYEFRLMM; listed as Homo sapiens) [compound 265]”, with “HNSCC, OC, PACA”; and “267 (VLKSITVKV; listed as Homo sapiens) [compound 267]”, with “HCC, MEL, NSCLCsquam”; and “268 (KVDMKDVTKI; listed as Homo sapiens) [compound 268]”, with “BRCA, CRC, GBM, HCC, MEL, NHL, NSCLCadeno, NSCLCother, NSCLCsquam, RCC, UBC, UEC”. As for “269 (KITDFNNIR; listed as Homo sapiens) [compound 269]”, the “Peptide Presentation on cancer entities” value in series [2] (setting [4]) is listed as “AML, BRCA, GBC, GBM, HCC, HNSCC, MEL, NHL, NSCLCadeno, OC, OSCAR, PACA, RCC, UEC”. In the case of “KTWAHCMSY (listed as Homo sapiens) [SEQ ID NO: 25]”, the “Peptide Presentation on cancer entities” value in series [2] (setting [3]) was “breast cancer, non-small cell lung cancer, and renal cell carcinoma”. On the same count and under the same terms, then “RVYPHKTLY (listed as Homo sapiens) [SEQ ID NO: 1]”, with “hepatocellular carcinoma, and urinary bladder carcinoma”.
